US7173055B1, “Pyrazolecarboxamide and pyrazolethioamide as fungicide” (Syngenta Crop Protection, Inc., priority 1999, dated 2007)
Some of these results come from one statement about several compounds together. Some compounds share one range, which may span the group rather than tell each member.

Tests used:
Assay type in all cases: in vivo
Puccinia Recondite = assay: Action against Puccinia Recondite/Wheat (Brownrust on Wheat); details: wheat plants cv. Arina, 0.02% active ingredient, spray, inoculated one day after application, assessed 10 days after inoculation
Podosphaera leucotricha = assay: Action against Podosphaera leucotricha/apple (Powdery mildew on apple); details: apple seedlings cv. McIntosh, 0.002% active ingredient, spray, inoculated one day after application, assessed after 12 days incubation
Venturia inaequalis = assay: Action against Venturia inaequalis/apple (Scab on apple); details: apple seedlings cv. McIntosh, 0.02% active ingredient, spray, inoculated one day after application
Erysiphe graminis = assay: Action Against Erysiphe graminis/Barley (Powdery Mildew on Barley); details: barley plants cv. Express, 0.02% active ingredient, spray, inoculated one day after application, assessed after 6 days incubation
Botrytis cinerea [1] = assay: Action Against Botrytis cinerea/Apple (Botrytis on Apple Fruits); details: apple fruit cv. Golden Delicious, drilled holes, 0.002% active ingredient, inoculated two hours after application, assessed after 7 days at 22° C.
Botrytis cinerea [2] = assay: Action Against Botrytis Cinerea/Grape (Botrytis on Grapes); details: grape seedlings cv. Gutedel, 0.002% active ingredient, spray, inoculated two days after application, assessed after 4 days incubation
Botrytis cinerea [3] = assay: Action Against Botrytis cinerea/Tomato (Botrytis on Tomatoes); details: tomato plants cv. Roter Gnom, 0.002% active ingredient, spray, inoculated two days after application, assessed after 4 days incubation
Pyrenophora teres = assay: Action Against Pyrenophora teres/Barley (Net Blotch on Barley); details: barley plants cv. Express, 0.002% active ingredient, spray, inoculated two days after application, assessed 4 days after inoculation
Septoria nodorum = assay: Action Against Septoria nodorum/Wheat (Septoria Leaf Spot on Wheat); details: wheat plants cv. Arina, 0.02% active ingredient, spray, inoculated one day after application, assessed 11 days after inoculation

Compound | infestation (Puccinia Recondite) | infestation (Podosphaera leucotricha) | infestation (Venturia inaequalis) | infestation (Erysiphe graminis) | infestation (Botrytis cinerea [1]) | infestation (Botrytis cinerea [2]) | infestation (Botrytis cinerea [3]) | infestation (Pyrenophora teres) | infestation (Septoria nodorum)
Cn1cc(C(=O)Nc2ccccc2-c2ccc(F)cc2)c(C(F)F)n1 [Compound 6] | 0–5% | < 20% | < 20% | < 20% | < 10% | < 10% | < 10% | < 20% | < 20%
Cn1cc(C(=S)Nc2ccccc2-c2ccc(F)cc2)c(C(F)(F)F)n1 [Compound 23] | 0–5% | < 20% | < 20% | < 20% | < 10% | < 10% | < 10% | < 20% | < 20%
Cn1cc(C(=O)Nc2ccccc2-c2ccc(F)cc2)c(C(F)(F)C(F)(F)F)n1 [Compound 17] | 0–5% | < 20% | < 20% | < 20% | < 10% | < 10% | < 10% | < 20% | < 20%
Cn1cc(C(=S)Nc2ccccc2-c2ccc(Cl)cc2)c(C(F)(F)F)n1 [Compound 22] | 0–5% | < 20% | < 20% | < 20% | < 10% | < 10% | < 10% | < 20% | < 20%
Cn1cc(C(=O)Nc2ccccc2-c2ccc(Cl)cc2)c(C(F)(F)F)n1 [Compound 1, 1-Methyl-3-trifluoromethyl-1H-pyrazole-4-carboxylic acid (4′-chlorobiphenyl-2-yl) amide] | 0–5% | < 20% | < 20% | < 20% | < 10% | < 10% | < 10% | < 20% | < 20%
Cn1cc(C(=O)Nc2ccccc2-c2ccc(F)cc2)c(C(F)(F)F)n1 [Compound 2] | 0–5% | < 20% | < 20% | < 20% | < 10% | < 10% | < 10% | < 20% | < 20%
Cn1cc(C(=O)Nc2ccccc2-c2ccc(Cl)cc2)c(C(F)F)n1 [Compound 5] | 0–5% | < 20% | < 20% | < 20% | < 10% | < 10% | < 10% | < 20% | < 20%
